# PubChem BioAssay AID1259264 – Sanger Institute, 2017
# Aim: 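Kinase-wide knock-down to find genes that strengthen targeted drug effects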 (primary screen)
# System: CL40 human colorectal cancer cells
# Reagents: siRNA pool against human genes
# Challenge: DMSO, or an anchor drug: BYL719 at 1 µM, cetuximab at 5 µg/ml, or trametinib at 10 nM
# Read-out: 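Replicate-mean viability versus a non-targeting pool, robust z-score from control wells, and mean synergy with BYL719 1 µM, cetuximab 5 µg/ml or trametinib 10 nM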
# Scale: robust z-score, siRNA alone and viability, siRNA alone: higher = more viable cells; synergy score with BYL719: higher = stronger combined killing with BYL719; synergy score with cetuximab: higher = stronger combined killing with cetuximab; synergy score with trametinib: higher = stronger combined killing with trametinib
# Hit rule: 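a gene counts as essential when knock-down without drug gives a robust z-score below -3, meaning fewer cells; synergy scores play no part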
# Calls: active = essential (lowers viability alone); inactive = not essential
# The whole screen tested 794 reagents; shown is a random part of them. 15 of them (1.9%) count as active. 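Calls rest on knock-down alone at z-score below -3; synergy scores with the three drugs do not decide them.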 No viability above 1 is reported: the scale is capped. No sequences are given here. Not stated in the record: the amount of reagent, the time to read-out.
"robust z-score, siRNA alone","viability, siRNA alone (fraction of control)",synergy score with BYL719,synergy score with cetuximab,synergy score with trametinib,activity call,gene,PubChem SID
0.539,1,-0.149,-0.00511,0.113,inactive,TBK1,SID56478726
0.539,1,-0.0446,0.00694,0.135,inactive,IKBKE,SID56478721
0.539,1,-0.0518,-0.0174,0.12,inactive,RPS6KL1,SID152155635
0.539,1,0.0401,-0.0174,0.148,inactive,GNAS,SID152155794
0.41,0.991,-0.00874,-0.0265,0.0958,inactive,AXIN2,SID135621652
-0.15,0.951,0.00893,-0.066,-0.0756,inactive,GALK1,SID56479189
0.539,1,-0.00411,-0.00307,0.0879,inactive,PCK2,SID56479157
-0.529,0.923,-0.134,-0.0927,0.047,inactive,PIP4K2C,SID56478804
0.151,0.972,-0.0657,-0.0447,0.0589,inactive,PAPSS2,SID152148635
0.239,0.978,-0.123,0.0352,0.0418,inactive,MAP3K20,SID152152597
-1.34,0.865,-0.131,-0.0837,0.0599,inactive,CDADC1,SID56479191
-0.0916,0.955,-0.134,-0.0619,0.0059,inactive,PLK3,SID56478615
-0.779,0.906,-0.104,-0.0247,0.0359,inactive,GSK3A,SID56478467
-0.545,0.922,-0.12,-0.0388,0.0507,inactive,ITPK1,SID56479109
0.387,0.989,-0.0473,-0.0249,0.0651,inactive,ERBB3,SID135620617
-0.407,0.932,-0.0757,-0.0445,0.0142,inactive,ATM,SID152150358
0.539,1,-0.00636,-0.0174,0.124,inactive,CSNK1D,SID56478658
0.188,0.975,-0.073,-0.0421,0.149,inactive,PSKH2,SID56479040
-1.11,0.882,-0.183,-0.0799,0.0112,inactive,MSR1,SID152150198
0.539,1,-0.0987,0.0251,0.054,inactive,SRP72,SID135623816
0.393,0.99,-0.0573,-0.0277,0.0769,inactive,LMTK1,SID152151616
-0.833,0.902,-0.132,-0.11,0.0792,inactive,STK17B,SID56478762

Continued (2 carried over from the part before).
"robust z-score, siRNA alone","viability, siRNA alone (fraction of control)",synergy score with BYL719,synergy score with cetuximab,synergy score with trametinib,activity call,gene,PubChem SID
0.393,0.99,-0.0573,-0.0277,0.0769,inactive,LMTK1,SID152151616
-0.833,0.902,-0.132,-0.11,0.0792,inactive,STK17B,SID56478762
0.225,0.977,-0.175,-0.0396,0.0199,inactive,NPR2,SID152151652
0.152,0.972,-0.112,-0.0354,0.113,inactive,PRKX,SID152149946
-2.11,0.81,-0.0243,-0.0485,-0.0516,inactive,CTCF,SID135623925
-0.739,0.908,-0.19,-0.107,0.0709,inactive,CDK19,SID56478856
0.539,1,-0.109,-0.0174,0.0426,inactive,PPP2R1A,SID135621908
0.539,1,-0.0576,-0.0174,0.0172,inactive,EPHA2,SID135620614
-1.87,0.827,-0.143,-0.173,-0.0236,inactive,PANK4,SID56479123
0.539,1,-0.0843,-0.0174,-0.00179,inactive,MAP2K6,SID135620765
0.398,0.99,-0.0478,-0.0274,0.13,inactive,BCOR,SID135620845
0.539,1,-0.156,-0.0174,0.0737,inactive,TBCK,SID56479023
-3.41,0.717,-0.2,-0.144,0.0592,active,TPK1,SID135621256
0.524,0.999,-0.00403,0.0077,0.0635,inactive,COMMD3,SID152155344
0.539,1,-0.0667,-0.00724,0.0655,inactive,TRPM7,SID152149681
0.539,1,-0.0818,-0.0174,0.0858,inactive,KIT,SID152151885
0.485,0.996,-0.115,-0.0212,0.0657,inactive,HK3,SID56479104
0.539,1,-0.102,-0.0174,0.124,inactive,JAK1,SID152154758
0.539,1,-0.156,-0.0174,-0.0849,inactive,ATRX,SID152156576
0.539,1,-0.015,-0.0174,0.0698,inactive,CAMK4,SID56478933
0.539,1,-0.0704,-0.0174,0.0449,inactive,CLK3,SID56478875
0.539,1,-0.0269,0.0421,0.0837,inactive,ELP1,SID56479224
-0.439,0.93,-0.052,-0.0405,0.0856,inactive,PCK1,SID135621257
0.539,1,-0.0485,0.0415,0.0157,inactive,GAK,SID152148846
0.539,1,0.126,0.0646,0.0961,inactive,LCK,SID152150546
-2.09,0.812,-0.0125,-0.0264,-0.0217,inactive,EFNB3,SID134315611
-0.112,0.953,-0.0255,-0.042,0.115,inactive,PRKAG1,SID135621699
-0.739,0.908,0.0324,0.0352,0.14,inactive,GTF2H1,SID56479243
0.539,1,-0.0832,-0.0174,0.0541,inactive,TAOK1,SID152151735
-0.416,0.932,-0.159,-0.0237,-0.00239,inactive,MLKL,SID56479010
